In patent EP4640708A1 (Chimagen Biosciences, Ltd, dated 2025):
Positions count from the first letter of the chain named. No constants are given. Whether binding was seen depends on the method and setting. Some entries that bind do so weakly or less than the wild type.

Sequences of proteins named here, by UniProt entry; tags and fusion partners are left off.
UniProt Q9NZD1: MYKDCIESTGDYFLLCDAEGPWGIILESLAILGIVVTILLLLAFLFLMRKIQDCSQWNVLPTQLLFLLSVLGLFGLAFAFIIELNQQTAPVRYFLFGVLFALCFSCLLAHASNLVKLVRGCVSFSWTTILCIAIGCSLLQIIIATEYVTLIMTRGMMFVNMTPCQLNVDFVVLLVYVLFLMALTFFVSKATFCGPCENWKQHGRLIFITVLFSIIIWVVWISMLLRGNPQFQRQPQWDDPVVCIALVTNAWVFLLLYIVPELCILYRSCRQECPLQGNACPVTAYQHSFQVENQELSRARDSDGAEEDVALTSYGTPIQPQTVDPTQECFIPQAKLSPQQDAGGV

B1: 22Mono5JO4 (antibody, human IgG1, V domains shown)
VH: QVQLVQSGAEVKKPGSSVKVSCRASGYPFTNYWMHWVRQAPGQGLEWIGEINPSNGRTNYNEKFKSRATLTLDKLTSTAYMELSSLTSEDTALYYCARGFAYWGQGTLVTVSS
VL: EIVLTQSPGTLSLSPGERATLSCSASSSVSFMHWYQQKPGQAPRRWIYDTTKLASGIPDRFSGSGSGTDYTLTISRLEPEDFAVYYCQQWNSHPLTFGQGTTVEIK
B2: 22Mono3L7F (antibody, human IgG1, V domains shown)
VH: EVTLKESGPVLVKPTETLTLTCTASGYPFTNYWMHWVRQPPGKALEWIGEINPSNGRTNYNEKFKSRATLSLDKSKSQAVLTMTNMDPVDTATYYCARGFAYWGQGTLVTVSS
VL: B1 VL with G9A, D59A, R76S, T102K, V103L
B3: 22Mono4DN4 (antibody, human IgG1, V domains shown)
VH: ELVQSGAEVKKPGSSVKVSCKASGYPFTNYWMHWVRQAPGQGLEWIGEINPSNGRTNYNEKFKSRATLTLDKSTSTAYMELSSLRSEDTAVYYCARGFAYWGQGTLVTVSS
VL: B1 VL with G9A, I57V, D59A, R76S, T102K
B4: 22Mono5UQY (antibody, human IgG1, V domains shown)
VH: QVQLQESGPGLVKPSETLSLTCTASGYPFTNYWMHWVRQPPGKGLEWIGEINPSNGRTNYNEKFKSRATLSLDKSKNQASLNLDSVSAADTAIYYCARGFAYWGKGSTVTVSS
VL: AIQLTQSPSSLSASVGDRVTITCSASSSVSFMHWYQQKPGKAPKRWIYDTTKLASGVPSRFSGSGSGTDYTFTISSLQPEDIATYYCQQWNSHPLTFGPGTKVDIK

biological target: Human GPRC5D protein-Flag-His tag (51.8KD) ACRO Cat:GPD-H52D3 (human) (UniProt Q9NZD1); test: BLI (Octet R8), recombinant GPRC5D immobilized on a chip

binding, binds:
B1
B2
B3
B4
